Experimental data taken from PubChem BioAssay AID1671190 (National Center for Advancing Translational Sciences (NCATS), 2021).
Values joined by “and” are separate entries in the source; they are usually repeats but may differ in a detail not shown here. Equal values may be shown once. Hit rate of the full screen: of about 580,000 compounds, about 6,100 (1.1%) were called active. Inconclusive means that the source gave no clear call. Such entries were picked first, then a sample of the others. Calls follow the shape of the dose curve; as a rule, active = well fitted inhibition curve with a large enough effect; inconclusive = small, poorly fitted or top-dose-only effect, or another doubt; inactive = no such curve, though single readings can be large or run the other way. A potency beside an inconclusive call is a rough fit, not a confirmed value.
Potency is read from the fitted curve at half-maximal effect.

By UniProt entry, the sequences of proteins in these tests, tags left out. Where a name states a change or a piece, a line headed by the entry shows the natural chain unless it says otherwise.
UniProt P18054: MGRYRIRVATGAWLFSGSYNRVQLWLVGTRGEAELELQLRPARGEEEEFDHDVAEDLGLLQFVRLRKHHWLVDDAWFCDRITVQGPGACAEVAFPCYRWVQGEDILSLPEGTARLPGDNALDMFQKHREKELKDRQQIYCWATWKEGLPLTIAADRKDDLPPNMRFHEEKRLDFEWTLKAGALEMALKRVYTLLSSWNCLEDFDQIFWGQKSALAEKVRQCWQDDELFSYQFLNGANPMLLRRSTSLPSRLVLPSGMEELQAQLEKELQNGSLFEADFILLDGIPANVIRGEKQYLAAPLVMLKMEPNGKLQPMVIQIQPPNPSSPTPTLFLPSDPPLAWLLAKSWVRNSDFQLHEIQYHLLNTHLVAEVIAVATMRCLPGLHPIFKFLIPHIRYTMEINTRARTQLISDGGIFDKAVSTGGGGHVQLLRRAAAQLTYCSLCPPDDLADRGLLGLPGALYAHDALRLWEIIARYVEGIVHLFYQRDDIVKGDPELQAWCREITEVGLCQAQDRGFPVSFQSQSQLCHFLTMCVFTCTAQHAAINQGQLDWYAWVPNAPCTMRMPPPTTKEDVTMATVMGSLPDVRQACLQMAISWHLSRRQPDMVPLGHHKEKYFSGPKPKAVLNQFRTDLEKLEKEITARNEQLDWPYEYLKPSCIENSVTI

These compounds were tested against Polyunsaturated fatty acid lipoxygenase ALOX12 (Homo sapiens) (UniProt P18054) (assay: Primary qHTS assay for inhibitors of human arachidonate 12S-lipoxygenase (ALOX12): Round 2). Details: purified 12hLO, xylenol orange hydroperoxide absorbance; series mostly up to 108 µM.
Summary of the method: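 Purified human 12hLO (150 nM final) in 25 mM Hepes, 0.01% Triton X-100, pH 7.0 was preincubated 15 min at room temperature with compound. Then 40 uM arachidonic acid was added, 30 min. Hydroperoxide was read by Fe-XO absorbance ratio 573/405 nm.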
`COc1cccc(-c2onc3ccc(C(=O)/C=C/N(C)C)cc23)c1` was tested, and the Potency was inconclusive: 35.5 µM [inhibitor, partial curve, poor fit].
For `Cc1cc(C)c2oc(C(=O)N(Cc3ccc(F)cc3)C3CCS(=O)(=O)C3)cc(=O)c2c1` (stereo unspecified), the Potency was “inactive”.
In the case of `COC(=O)C1=CN(c2ccc3c(c2)OCO3)C(N)=C(C#N)C1c1cccc(F)c1` (stereo unspecified), the Potency is reported as inconclusive: 44.7 µM [inhibitor, partial curve, poor fit].
With `COc1cccc(CC(=O)Nc2cc(S(=O)(=O)N3CCOCC3)ccc2OC)c1` the Potency was “inactive”.
`CCCN(CC1CC1)C(=O)COC(=O)c1csc(NCc2ccccc2)n1` was tested, and the Potency was inconclusive: 7.08 µM [inhibitor, full curve, poor fit].
With `O=C(NC1CCN(C(=O)N2c3ccccc3Sc3ccccc32)CC1)c1ccccc1F` the Potency was inconclusive: 15.8 µM [inhibitor, partial curve, poor fit].
For `O=C(CSc1nc(O)cc(=O)[nH]1)N1c2ccccc2Sc2ccccc21`, the Potency was inconclusive: 79.4 µM [inhibitor, partial curve, poor fit].
For `CCS(=O)(=O)c1ccc2c(c1)N(S(=O)(=O)c1ccc(OC)cc1)CC(C(=O)O)O2` (stereo unspecified), the Potency was inconclusive: 2.82 µM [inhibitor, full curve, poor fit].
With `CCCCn1c(N)c(N(CCC)C(=O)c2cccnc2SC)c(=O)[nH]c1=O` the Potency was inconclusive: 35.5 µM [inhibitor, partial curve, poor fit].
`COc1ccc(CCC(=O)N2CCCC(c3nc(-c4ccccc4)no3)CCNC(=O)CC2)cc1` (stereo unspecified) was tested, and the Potency was “inactive”.
With `CCc1cc(=O)n(CC(=O)NCc2ccc(OC)cc2)c(N2CCOCC2)n1` the Potency was “inactive”.
`Cc1ccc(S(=O)(=O)c2nc(-c3ccco3)oc2SCC(=O)NCC2CCCO2)cc1` (stereo unspecified) was tested, and the Potency was inconclusive: 39.8 µM [inhibitor, partial curve].
In the case of `CCOC(=O)c1c(C)oc2ccc(N(C(=O)Oc3ccccc3)S(=O)(=O)c3ccccc3)cc12`, the Potency is reported as “inactive”.
With `COc1ccc(OC)c(C(=O)OCc2nc3ccccc3o2)c1` the Potency was “inactive”.
In the case of `Cc1ccc(F)c(S(=O)(=O)NC(=O)C2(C)CCN2C(=O)CCC2CCCC2)c1` (stereo unspecified), the Potency is reported as inconclusive: 4.47 µM [inhibitor, full curve, poor fit].
In the case of `COc1ccc(NC(=O)c2ccc(-c3ccc(-c4noc(C)n4)cc3C)cc2)cc1OCCN(C)C`, the Potency is reported as “inactive and inconclusive: 22.4 µM [inhibitor, partial curve, poor fit]”.
With `CNC(=O)CCSc1ccc(C)cc1` the Potency was “inactive”.
For `CCOC(=O)c1sc(=NC(=O)c2ccccc2)n(C)c1C`, the Potency was inconclusive: 0.355 µM [inhibitor, full curve, poor fit].
In the case of `COc1ccc2c(c1)[C@@H](NC(=O)OCc1ccccc1)[C@H](C)[C@@H](c1ccccc1)N2`, the Potency is reported as inconclusive: 39.8 µM [inhibitor, partial curve, poor fit].
In the case of `CCN1C(=O)S/C(=C/c2ccc(Sc3nc4ccccc4[nH]3)o2)C1=O`, the Potency is reported as “inactive”.
In the case of `COc1ccccc1NC(=O)c1c(NCc2sccc2C)sc2c1CCCCC2`, the Potency is reported as inconclusive: 39.8 µM [inhibitor, partial curve].
For `COC(=O)C1=C(C)N(CC(C)C)C(=S)NC1c1cccc(OC)c1` (stereo unspecified), the Potency was inconclusive: 44.7 µM [inhibitor, partial curve, poor fit].
For `O=C1NC2(CCN(CC3CCCC3)CC2)COc2ccccc21`, the Potency was inconclusive: 14.1 µM [inhibitor, full curve].
`CCOc1ccc(C(O)(c2ccccc2OC)C(CN2CCCC2)c2ccccc2)cc1` (stereo unspecified) was tested, and the Potency was “inactive”.
With `COC(=O)CN(CC(=O)OC)NC(=O)CCC(=O)O` the Potency was inconclusive: 11.2 µM [inhibitor, full curve].
In the case of `Brc1cccc(CNCc2ccc(Cn3cncn3)cc2)c1`, the Potency is reported as inconclusive: 89.1 µM [inhibitor, partial curve, poor fit].
`Cc1ccc(CNC(=O)c2ccc3nc(-c4ccccc4)c(-c4ccccc4)nc3c2)cc1` was tested, and the Potency was “inactive”.
With `NC(=O)CCN1CCN(Cc2cn[nH]c2-c2cccc3ccccc23)CC1` the Potency was “inactive”.
With `Cc1sc(-c2cc3c([nH]c2=O)CC(c2ccco2)CC3=O)nc1-c1ccc(Cl)cc1` (stereo unspecified) the Potency was inconclusive: 1.58 µM [inhibitor, full curve, poor fit].
For `Cc1onc(-c2ccccc2)c1C(=O)NC(=S)NNC(=O)c1ccc(O)cc1`, the Potency was inconclusive: 44.7 µM [inhibitor, partial curve, poor fit].
For `CCOC(=O)c1c(NC(=S)Nc2cccnc2)sc(C)c1C`, the Potency was inconclusive: 31.6 µM [inhibitor, partial curve, poor fit].
For `COc1ccc(Nc2nc(-c3c(C)noc3C)cc3cc(CN(C)C)oc23)cn1`, the Potency was inconclusive: 28.2 µM [inhibitor, partial curve].
With `CCn1c(SCc2nc(-c3ccccc3OC)no2)nnc1-c1ccco1` the Potency was “inactive”.
For `CCOC(=O)c1sc2nc3n(c(=O)c2c1C)CCC(C)CC3` (stereo unspecified), the Potency was inconclusive: 31.6 µM [inhibitor, partial curve].
In the case of `C=CCC[C@H](Cc1ccc(F)cc1)C(=O)OC[C@@H](Cc1c[nH]c2ccccc12)NC(=O)[C@@H](CC=C)CC(=O)NCCO`, the Potency is reported as inconclusive: 39.8 µM [inhibitor, partial curve, poor fit].
`CCC(=O)Nc1ccc2c(c1)ncn2C` was tested, and the Potency was “inactive”.
In the case of `CCCS(=O)(=O)NC(=O)C1(C)CCCN(C(=O)c2ccc3snnc3c2)C1` (stereo unspecified), the Potency is reported as inconclusive: 0.355 µM [inhibitor, full curve, poor fit].
`CCOC(=O)c1c(NC(=O)COC(=O)CNC(=O)c2ccc(Cl)cc2Cl)sc(C(=O)N(C)C)c1C` was tested, and the Potency was inconclusive: 158 µM [inhibitor, single point].
`COC(=O)C(c1ccccc1)(c1cn(C)c2ccccc12)C(Nc1ccccc1)c1ccccc1` (stereo unspecified) was tested, and the Potency was “inactive”.
For `N#Cc1cccnc1N1CCN(C(C(=O)O)c2c[nH]c3ccc(Br)cc23)CC1` (stereo unspecified), the Potency was inconclusive: 44.7 µM [inhibitor, partial curve, poor fit].
With `Cc1cccc(Nc2nc(N)nc(CN3CCN(Cc4ccc5c(c4)OCO5)CC3)n2)c1` the Potency was “inactive”.
